Test results as given in PMC12410356 (International Journal for Parasitology: Drugs and Drug …, 2025).

Legend:
[1] = tested on: E. multilocularis metacestode vesicles; test: Phosphoglucose isomerase (PGI) release assay (damage-marker release) on metacestode vesicles; format: cell-based, Echinococcus multilocularis; conditions: overview screen, 10 μM, singlets, relative to 0.1 % Triton X-100, DMSO subtracted
Method: In order to quantify the drug-induced damage on whole metacestode vesicles, phosphoglucose isomerase (PGI) assay was performed as described previously ([Stadelmann et al., 2010]) with few adaptations published recently ([Kaethner et al., 2023]). In short, 8 to 12 weeks-old metacestode vesicles were purified using 2 % sucrose with subsequent washes in PBS. Metacestode vesicles were diluted in two volumes of DMEM without phenol red containing penicillin (100 U/mL) and streptomycin (100 μg/mL). […] 0.1 % DMSO was used as a negative solvent control and 0.1 % Triton X-100 was used as a positive total damage control. Metacestode vesicles were incubated under a humid, 5 % CO2 atmosphere at 37 °C. After five and twelve days, supernatant was taken and pictures were made using a Nikon SMZ18 stereo microscope (Nikon, Basel, Switzerland) at 7.5 × magnification. PGI activity in the supernatants was measured on a HIDEX Sense microplate reader (Hidex, Turku, Finland). The corresponding values of the DMSO controls were subtracted from the values of the compounds and then PGI activity was calculated relative to 0.1 % Triton X-100. […] IC50 values were calculated applying the 3 parameter Weibull type 1 in R for each of the three independent experiments ([Ritler et al., 2020]).

[2] = tested on: E. multilocularis metacestode vesicles; test: Metacestode vesicle viability assay (ATP, CellTiter-Glo); format: cell-based, Echinococcus multilocularis; conditions: overview screen, 10 μM, singlets, 12 days, relative to DMSO control
Method: Viability was assessed after 12 days using the same metacestode vesicles as for the PGI release assay. Triton X-100 was added to each well to a final concentration of 0.1 %. Subsequently the metacestode vesicles were broken mechanically and 50 μL of the supernatant was mixed with 50 μL of CellTiter-Glo® buffer (Promega, Dübendorf, Switzerland). Measurements were performed on a HIDEX Sense microplate reader.

For Cl.Clc1ccc(COC(Cn2ccnc2)c2ccc(Cl)cc2Cl)c(Cl)c1 (stereo not drawn) [MMV002722], the “PGI d5 (relative PGI release)” value ([1]; 5 days) was -0.1445%, the “PGI d12 (relative PGI release)” value ([1]; 12 days) was -8.771% and the “Viability d12 (relative viability)” value [2] was 116.729%.
